Experiments:
[1] = tested on: RAS-GTP and pERK levels in A549 xenograft tumors; details: single administration
KRAS mutant cancer cells = experiment: cells; details: read-out: IC50 of 3D growth
[2] = tested on: recombinant SOS1 with mutations Y884A and H905V, interaction with KRAS G12D
[3] = tested on: recombinant SOS2 and recombinant KRAS G12C or KRAS G12D; details: SOS1 replaced with its paralog SOS2

COc1cc2nc(C)nc(N[C@H](C)c3cc(N)cc(C(F)(F)F)c3)c2cc1O[C@H]1CCOC1 [BI-3406]
period of reduced pERK levels [1]: 7 hours
IC50 (KRAS mutant cancer cells): 16 to 52 nM
ability to disrupt interaction of mutated SOS1 with KRAS G12D [2]: strongly impaired
interference with KRAS binding to SOS2 [3]: lost its ability to interfere with KRAS binding
